Measurements taken from PubChem BioAssay AID2685 (National Center for Advancing Translational Sciences (NCATS), 2010).
The list shows a part of the results. The main result of the screen is listed elsewhere. These columns were measured beside it and carry no call. Most of these compounds were active or inconclusive in the main read-out, so they are no random draw. The note in brackets gives the kind of curve behind each potency; many fits are weak.

Assay: qHTS Assay for Lipid Storage Modulators in Drosophila S3 Cells;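 on cell number change: cells counted by Cell Tracker Red CMTPX staining in the red channel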
Conditions: BODIPY lipid droplet fluorescence, 18-24 h; for cell number change: measured here: cell count max response, cells fed with added oleic acid
Method in brief: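 Drosophila S3 cells got compounds at several concentrations plus oleic acid (400 uM solution). Laser-scanning cytometry with 488 nm excitation read lipid droplets at 500-530 nm and cells at 575-640 nm. Percent activity was relative to 20 uM Triacsin C.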

[1] = measured here: lipid fluorescence (Fed channel) AC50, cells fed with added oleic acid
[2] = measured here: cell number channel AC50, cells fed with added oleic acid

CCO[C@H]1OC(C(=O)Nc2ccccc2)=C[C@@H](c2coc3ccccc3c2=O)[C@@H]1CCCO
cell number change: 2.08%
AC50 [1]: 0.0058 µM [falling, full curve, poor fit]

CCOCCCNC(=O)CSc1nc2nc(C)c(Cc3ccccc3)c(C)n2n1
cell number change: 13.3%

O=C(Cc1ccc(F)cc1)N1CCN=C1SCc1cccc([N+](=O)[O-])c1
cell number change: 28.2%

Cc1cc(C(=O)NC(C)CCC(C)C)c2ccccc2n1 (configuration not stated)
cell number change: 7.01%

N=c1ccn(Cc2ccc(Cl)cc2)cc1
cell number change: -36.8%
AC50 [2]: 18.4 µM [falling, partial curve]
AC50 [1]: 3.26 µM [falling, full curve]

COC(=O)c1ccc(CSc2nc3ccc(S(N)(=O)=O)cc3[nH]2)cc1
cell number change: 9.83%
AC50 [1]: 0.517 µM [rising, full curve]

CC(=O)Nc1ccc(S(=O)(=O)N(C)S(=O)(=O)c2ccc(F)cc2)cc1
cell number change: -0.52%
AC50 [1]: 0.103 µM [rising, full curve, poor fit]

CN1CCN(C2=C(Cl)C(=O)N(c3ccc(Cl)c(Cl)c3)C2=O)CC1
cell number change: 0.557%
AC50 [2]: 0.13 µM [falling, full curve, poor fit]
AC50 [1]: 6.51 µM [falling, single point]

CCOC(=O)c1ccccc1NC(=O)COC(=O)CN1C(=O)C2CC=CCC2C1=O (configuration not stated)
cell number change: -47%
AC50 [2]: 32.6 µM [falling, single point]
AC50 [1]: 0.58 µM [falling, single point]

COC(=O)Cc1c(C)nc2nc(-c3ccc(C)cc3)[nH]n2c1=O
cell number change: -1.35%
AC50 [1]: 6.51 µM [falling, partial curve]

O=C(Nc1ccccc1C(=O)OCC(=O)N1CCc2ccccc2C1)c1ccco1
cell number change: -7.1%
AC50 [1]: 0.00461 µM [falling, full curve, poor fit]

Clc1ccc(-c2nc3cnccn3c2NC2CCCC2)cc1
cell number change: -34.3%
AC50 [2]: 32.6 µM [falling, single point]
AC50 [1]: 29.1 µM [falling, single point]

Cc1ccc(CNC(=O)c2ccc(Cl)c(S(=O)(=O)N3CCCCC3)c2)cc1
cell number change: 20.1%
AC50 [2]: 0.103 µM [falling, full curve, poor fit]

CCOC(=O)c1c(NC(=O)CSc2nncn2C)sc(C)c1C
AC50 [2]: 2.91 µM [rising, partial curve]
AC50 [1]: 2.91 µM [rising, partial curve]

COc1ccc(NC(=S)N(CCc2c(C)[nH]c3ccc(C)cc23)Cc2cccs2)cc1
cell number change: -0.808%

O=C(Nc1cccc2ncccc12)c1ccc(Cl)cc1
cell number change: 4.99%
AC50 [2]: 6.51 µM [falling, single point]
AC50 [1]: 14.6 µM [falling, partial curve]

COc1ccc(-c2cc(C(=O)N(C)CC(=O)Nc3cccc(F)c3)c3ccccc3n2)cc1
cell number change: 49%
AC50 [2]: 6.51 µM [rising, partial curve]

COc1cc(C=O)cc(Cl)c1OC(=O)N1CCOCC1
cell number change: -4.26%
AC50 [2]: 6.51 µM [rising, partial curve, poor fit]

O=C(CSc1nnc(Cn2cnc3ccccc32)o1)Nc1cccc2ccccc12
AC50 [1]: 23.1 µM [falling, single point]

COc1ccc2c3c(c(=O)oc2c1)C1O[C@](CCCCN2C(=O)c4ccccc4C2=O)(Cc2cc(OC)c(OC)cc21)O3
cell number change: -20.2%

CSc1ccccc1NC(=O)CN(C)C(=O)/C=C/c1ccccc1
cell number change: 0.519%
AC50 [1]: 0.116 µM [falling, full curve, poor fit]

O=C(Cn1nnc(-c2ccccc2F)n1)Nc1cccc2ncccc12
AC50 [2]: 4.61 µM [rising, partial curve]

CCn1c(CCCNC(=O)c2ccc(F)cc2)nc2ccccc21
cell number change: 16.8%
AC50 [1]: 6.51 µM [rising, single point]

O=C(C1=C(O)C(=O)N(CCc2ccccc2)C1c1ccncc1)c1cc2ccccc2o1 (configuration not stated)
cell number change: -11%
AC50 [1]: 0.0291 µM [rising, full curve, poor fit]

Cc1ccc(C)c(OCc2cc(C(=O)N3CCN(c4ccccc4)CC3)no2)c1
cell number change: 1.39%
AC50 [1]: 0.731 µM [falling, full curve, poor fit]

COc1ccc(S(=O)(=O)Cc2ccc(C(=O)NC3CCC(C)CC3)o2)cc1 (configuration not stated)
cell number change: 21.8%
AC50 [1]: 29.1 µM [rising, partial curve, poor fit]

CCOC(=O)C1CCCN(CC(O)COC(c2ccccc2)c2ccccc2)C1 (configuration not stated)
cell number change: 12.6%
AC50 [1]: 2.91 µM [rising, single point]

S=C(NCCC1=CCCCC1)Nc1ccccc1
cell number change: -21.6%
AC50 [1]: 32.6 µM [falling, single point]

CCCN(CC1CC1)C(=O)COC(=O)c1ccc2c(c1)C(=O)N(c1ccc(OCC)cc1)C2=O
cell number change: -27.6%
AC50 [2]: 0.00461 µM [rising, full curve, poor fit]

O=C(CNC(=O)c1ccc(Cl)cc1Cl)OCCCn1c(=O)[nH]c2ccccc21
AC50 [1]: 29.1 µM [falling, single point]

O=C(CN1CCN(Cc2ccccc2)CC1)c1c[nH]c2ccccc12
cell number change: 11%

COc1cc(/C=C2/C(=N)N3N=C(CC(=O)N4CCOCC4)SC3=NC2=O)ccc1OCc1ccc(F)cc1
cell number change: -3.54%
AC50 [1]: 29.1 µM [rising, single point]

COc1ccc(C2=NOC(COc3ccc4c(C)cc(=O)oc4c3)C2)c(OC)c1 (configuration not stated)
cell number change: 8.87%
AC50 [1]: 7.31 µM [rising, partial curve]

CC(CCc1ccccc1)NC(=O)CN1C(=O)NC2(CCCCC2)C1=O (configuration not stated)
cell number change: -12%
AC50 [1]: 18.4 µM [falling, single point]

CC1CCN(CCOc2ccccc2-c2ccccc2)CC1
cell number change: -18.5%
AC50 [1]: 0.00461 µM [falling, full curve, poor fit]

COC(=O)CSc1ccc2c(N)c(C(=O)OC)sc2c1
cell number change: 11.9%
AC50 [1]: 8.2 µM [rising, partial curve, poor fit]

COc1ccccc1NC(=O)C1C2C=CC(C2)C1C(=O)NCc1cccnc1 (configuration not stated)
cell number change: 8.47%
AC50 [1]: 29.1 µM [falling, single point]

Cn1c(=O)[nH]c(=O)c2c1nc(N1CCOCC1)n2CCSc1nnnn1-c1ccccc1
cell number change: 20.5%
AC50 [1]: 2.06 µM [rising, full curve]
